## Small-molecule microarray binding calls

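Each compound is printed as two spots on a slide made to bind it covalently, so it has no test concentration; the read-out is fluorescence of the bound, labelled oligonucleotide. For the PreQ1, TPP and SAM-II riboswitches the laboratory earlier reported (doi:10.1038/s41467-019-09493-3) 1 µM RNA, 2 h, and a rule that included a mean Z-score above 3 (spot signal-to-noise against the whole library), a score well above that on a control array, and duplicate spots agreeing (coefficient of variation under 100). The data file gives only the calls; its cut-offs may differ, and compounds hitting several targets are kept. A missing hit is not proof of no binding, and a hit is not a measured affinity.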 A compound is marked hit if it was called a hit and none if it was screened but was not. This is an unselected part of the compounds tested. A target missing from an entry has no call listed here. A dash means that no call is listed here.

Targets, with sequences 5′ to 3′:
TPP: TPP riboswitch RNA three-way junction, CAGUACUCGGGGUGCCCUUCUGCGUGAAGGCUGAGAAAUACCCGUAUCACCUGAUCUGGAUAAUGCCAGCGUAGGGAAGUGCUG. About 160 hits among about 24,000 compounds.
SAM-II: SAM-II riboswitch RNA pseudoknot, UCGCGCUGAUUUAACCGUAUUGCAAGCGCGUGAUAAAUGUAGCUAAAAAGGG. About 200 hits among about 21,000 compounds.
PreQ1: PreQ1 riboswitch RNA pseudoknot, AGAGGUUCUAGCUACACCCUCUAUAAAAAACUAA. From B. subtilis. About 170 hits among about 24,000 compounds.

Compound	TPP	SAM-II	PreQ1
N[C@@H]1CCN(CCSc2ccccc2)C[C@H]1O	none	none	none
CCOC(=O)C1(C)C=C(Nc2ccc(Br)cc2)C(=O)N1c1ccccc1 (stereo unspecified)	none	none	none
O=C(NCC(O)c1ccccc1F)c1cnc(Nc2ccccc2)nc1 (stereo unspecified)	none	none	none
COc1ccccc1N1CC(c2nc3ccccc3n2CC(O)COc2c(C)cccc2C)CC1=O (stereo unspecified)	none	-	none
Nc1c(C(=O)Nc2ccc(Cl)cc2)sc2nc3c(cc12)CCCC3	none	none	none
CCN1CCc2ccccc2C1	none	none	none
CCN(CC)CCN1CC(=O)C(c2nc3ccccc3[nH]2)=C1N	none	-	none
COc1cc2c(cc1OC)CN(C=Nc1sc3c(c1C#N)CC(C)(C)NC3(C)C)CC2	none	none	none
CC(=O)c1ccc(Nc2ccnc3c(Cl)cccc23)cc1	none	none	none
COC(=O)c1c(N)sc2c1CCC2	none	-	none
Cc1ccc(-n2nnc(C(=O)NCCO)c2C(C)C)cc1	none	-	none
CO[C@H]1C[C@@H](O)C12CCN(C(=O)Cc1c[nH]c(=O)n(C)c1=O)CC2	none	none	none
Nc1cccc2[nH]nnc12	none	none	none
Nc1nc(CNC(=O)c2ccc3cccc(F)c3n2)cs1	none	none	none
Cc1ccc(CNCCc2ccc3c(c2)OCO3)cc1	none	none	none
Cc1nc(C2=C(N)N(CC(C)O)CC2=O)sc1C (stereo unspecified)	none	-	none
O=S1(=O)C[C@H](NCc2ccccc2)[C@@H](S(=O)(=O)c2ccccc2)C1	none	-	none
C=CCn1cc(CNCC2(COc3ccccc3)CC2)c(C)n1	none	none	none
Cn1c(=O)n(C)c2cc(S(=O)(=O)NCc3cc4n(n3)CCNC4)ccc21	none	none	none
Cc1cc(N2CCCC(n3cc(C(=O)NCCO)nn3)C2)c2ccccc2n1 (stereo unspecified)	none	none	none
CN1CCN(CCCNc2c(N)c(=O)oc3ccccc23)CC1	none	none	none
CCNc1nc(N2CCOCC2)nc(-n2cnc(SCc3ccccc3)n2)n1	none	-	none
CNCC(=O)NCCc1nc(-c2ccccc2)cs1	none	none	none
COc1cccc([C@H]2C[C@@H](c3ccccc3Cl)Nc3nc(N)nn32)c1	none	none	none
Cc1cccc(NC(=O)c2sc3nc(C)cc(-c4ccccc4)c3c2N)c1	none	none	none
c1cncc(-c2noc(CCNc3ncnc4c3CCNCC4)n2)c1	none	none	none
O=S1(=O)N=C(Nc2ccncc2)c2ccccc21	none	none	none
CCOC(=O)C1=C(C)N(CCO)C(=O)NC1c1ccc(OCC)cc1 (stereo unspecified)	none	none	none
O=C(Cn1c(C2CC2)nc2ccccc21)N1CCOCC(CO)C1 (stereo unspecified)	none	none	none
O=C(NCCO)c1ccc(I)cc1	none	none	none
CSCCc1nc(-c2cnc(C3CC3)[nH]c2=O)n(CCO)n1	none	none	none
COC(=O)c1ccc(NC(=O)CN2CCNCC2)cc1	none	none	none
CN(Cc1nccs1)S(=O)(=O)c1ccc2c(c1)CN(C(=O)CCN)CC2	none	none	none
Cc1ccc(OCC(O)CNC(=O)C2CCN(C(=O)N(C)C)CC2)c(C)c1 (stereo unspecified)	none	none	none
O=C(NCCc1ccccc1)C1CCN(C2CCN(C(=O)CCO)CC2)CC1	none	none	none
Cc1ccsc1CNc1cccc(C(=O)N2CCC[C@H]2C(N)=O)c1	none	none	none
O=c1n(CC2COCCO2)nc(C2CCNCC2)n1-c1ccccc1 (stereo unspecified)	none	none	none
CC1(C)NC(=O)N(c2ccc([N+](=O)[O-])c(C(F)(F)F)c2)C1=O	none	none	none
COc1ccccc1NC(=O)c1sc2nc3c(cc2c1N)CCCCCC3	none	none	none
CCN(C)C[C@@H]1CN(C(=O)CCN2Cc3ccccc3C2=O)C[C@@H]1CO	none	none	none
OC(c1ccccc1)c1ccc2c(c1)c1c3n2CCNC3CCC1 (stereo unspecified)	none	-	none
CNc1oc(-c2ccc(F)cc2)nc1S(=O)(=O)c1ccc(F)cc1	none	-	none
CC(=O)c1ccc(C(=O)N2CCC3(CC2)OCCCC3O)s1 (stereo unspecified)	none	none	none
c1cnc(-c2nc(CCNC3CCOC4(CCOCC4)C3)cs2)cn1 (stereo unspecified)	none	none	none
Cn1ccnc1CN1CCN(CC2(O)CCNC2)CC1 (stereo unspecified)	none	none	none
O=S(=O)(NC1CCCCC1NCc1ccco1)c1ccc(Cl)cc1 (stereo unspecified)	none	none	none
O=C(O)c1ccc(-c2ccc(F)cc2)nc1N1CCCC(O)(CO)C1 (stereo unspecified)	none	none	none
O=C(NCCO)c1cc2n(n1)CCN(C(=O)c1n[nH]c3ccccc13)C2	none	none	none
CCN(CC)S(=O)(=O)c1ccc(-c2nc(C#N)c(NC)o2)cc1	none	-	none
CC12CNCC(C)(CN(Cc3ccc(Br)cc3)C1)C2.O=C(O)C=CC(=O)O	none	none	none
CN(CC(=O)N[C@@H]1CCNC[C@H]1O)Cc1ccccc1F	none	none	none
O=C(Nc1ccc2c(c1)Nc1ccccc1CC2)N1CCCCC1CO (stereo unspecified)	none	none	none
Cc1ccc(C)c(Cn2c(CCCO)nc3ccccc32)c1	none	-	none
Cc1ccc(NC(=O)N2CCCCC2)cc1[N+](=O)[O-]	none	none	none
O=C(c1ccc(C2CCCN2)s1)N1CCC(c2ccncc2)CC1 (stereo unspecified)	none	none	none
COc1ccc(CNc2ccc3c(c2)ncn3C)cc1OC	none	none	none
COc1ccc(-c2nc3cnccn3c2Nc2ccc(Cl)cc2)cc1OC	none	-	none
Cc1cc(=O)oc2cc(O)ccc12	none	none	none
O=C(CC1COCCN1)NCc1csc(N2CCCC2)n1 (stereo unspecified)	none	none	none
CC1=C(C(=O)OC(C)C)C2(C(=O)N(C)c3ccccc32)C(C#N)=C(N)O1 (stereo unspecified)	none	none	none
Cc1ccc(Nc2nc(C)cc(N3CCN(S(=O)(=O)c4ccc(F)cc4)CC3)n2)cc1	none	-	none
CCOc1ccc(C(C)=O)cc1N	none	none	none

The last 5 entries again:

* Cc1cc(=O)oc2cc(O)ccc12 | TPP: none; SAM-II: none; PreQ1: none
* O=C(CC1COCCN1)NCc1csc(N2CCCC2)n1 (stereo unspecified) | TPP: none; SAM-II: none; PreQ1: none
* CC1=C(C(=O)OC(C)C)C2(C(=O)N(C)c3ccccc32)C(C#N)=C(N)O1 (stereo unspecified) | TPP: none; SAM-II: none; PreQ1: none
* Cc1ccc(Nc2nc(C)cc(N3CCN(S(=O)(=O)c4ccc(F)cc4)CC3)n2)cc1 | TPP: none; PreQ1: none
* CCOc1ccc(C(C)=O)cc1N | TPP: none; SAM-II: none; PreQ1: none

Source: the ROBIN nucleic acid binder screens (doi:10.1002/anie.202211358).